In PMC12098688:
Results are given in words; binding and its absence hold for the method and conditions named. Binding seen in cells or lysates may run through a third protein. Some entries that bind do so weakly or less than the wild type.

Protein sequences, listed by entry. Tags and fused reporters are not part of them. Residues count along the entry.
UniProt Q15843, residues 1-76: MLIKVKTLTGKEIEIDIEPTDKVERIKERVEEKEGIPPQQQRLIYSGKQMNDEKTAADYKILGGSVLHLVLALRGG
UniProt P61586: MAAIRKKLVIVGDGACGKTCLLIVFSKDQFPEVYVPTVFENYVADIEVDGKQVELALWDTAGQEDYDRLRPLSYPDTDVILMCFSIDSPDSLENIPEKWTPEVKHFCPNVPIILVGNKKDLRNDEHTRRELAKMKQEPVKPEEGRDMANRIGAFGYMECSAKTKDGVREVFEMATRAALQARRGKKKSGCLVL

Experiments:
[1] = target: Flag-tagged NEDD8 (UniProt Q15843); test: co-IP; lysates of HEK293T cells expressing Flag-NEDD8; Co-IP buffer, antibody overnight at 4 °C, protein A magnetic beads; blot for RhoA
[2] = target: endogenous NEDD8 (HK-2 cells) (human (endogenous in HK-2)) (UniProt Q15843); test: co-IP; endogenous proteins in HK-2 lysate; IP with anti-NEDD8 antibody, protein A magnetic beads; blot for RhoA

binding [1] | binding [2] | Substance
binds |  | RhoA (in HEK293T lysate) (from UniProt P61586 1-193)
 | binds | endogenous RhoA (HK-2 cells) (from UniProt P61586 1-193)
